In the supplement of paper PMC10849652:
The list shows a part of the results.

Amino acid sequences for entries named in this document (tags omitted). A change or cut given only in a name is not applied to a line headed by its entry.
UniProt Q96RN5: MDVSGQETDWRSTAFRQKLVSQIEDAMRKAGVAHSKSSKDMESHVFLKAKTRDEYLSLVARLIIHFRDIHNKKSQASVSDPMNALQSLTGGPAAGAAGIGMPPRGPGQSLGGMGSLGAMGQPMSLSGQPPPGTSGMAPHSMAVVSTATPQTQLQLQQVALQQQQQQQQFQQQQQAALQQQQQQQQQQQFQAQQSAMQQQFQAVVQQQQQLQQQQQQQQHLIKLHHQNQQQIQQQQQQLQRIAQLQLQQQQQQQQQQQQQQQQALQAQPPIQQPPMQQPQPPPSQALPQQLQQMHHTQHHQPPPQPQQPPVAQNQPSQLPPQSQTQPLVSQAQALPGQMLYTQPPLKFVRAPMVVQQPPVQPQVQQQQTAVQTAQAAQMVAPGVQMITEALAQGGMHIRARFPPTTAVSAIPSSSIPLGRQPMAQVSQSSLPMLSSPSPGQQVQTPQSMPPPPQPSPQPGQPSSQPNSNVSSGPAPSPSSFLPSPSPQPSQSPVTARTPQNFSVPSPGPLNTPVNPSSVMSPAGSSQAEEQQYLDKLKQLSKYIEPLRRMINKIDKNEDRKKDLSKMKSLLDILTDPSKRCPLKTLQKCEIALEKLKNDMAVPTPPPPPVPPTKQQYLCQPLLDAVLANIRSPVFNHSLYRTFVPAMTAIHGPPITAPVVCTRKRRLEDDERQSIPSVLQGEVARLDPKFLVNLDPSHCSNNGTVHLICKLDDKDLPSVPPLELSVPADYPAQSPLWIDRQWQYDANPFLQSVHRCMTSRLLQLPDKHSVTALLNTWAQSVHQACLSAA
UniProt Q9H944: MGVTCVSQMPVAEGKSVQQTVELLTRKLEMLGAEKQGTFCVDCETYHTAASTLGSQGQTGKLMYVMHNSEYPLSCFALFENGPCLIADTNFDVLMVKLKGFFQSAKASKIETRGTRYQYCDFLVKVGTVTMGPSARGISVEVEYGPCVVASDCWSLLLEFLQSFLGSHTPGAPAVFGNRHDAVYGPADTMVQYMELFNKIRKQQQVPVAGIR
UniProt Q9UQ53: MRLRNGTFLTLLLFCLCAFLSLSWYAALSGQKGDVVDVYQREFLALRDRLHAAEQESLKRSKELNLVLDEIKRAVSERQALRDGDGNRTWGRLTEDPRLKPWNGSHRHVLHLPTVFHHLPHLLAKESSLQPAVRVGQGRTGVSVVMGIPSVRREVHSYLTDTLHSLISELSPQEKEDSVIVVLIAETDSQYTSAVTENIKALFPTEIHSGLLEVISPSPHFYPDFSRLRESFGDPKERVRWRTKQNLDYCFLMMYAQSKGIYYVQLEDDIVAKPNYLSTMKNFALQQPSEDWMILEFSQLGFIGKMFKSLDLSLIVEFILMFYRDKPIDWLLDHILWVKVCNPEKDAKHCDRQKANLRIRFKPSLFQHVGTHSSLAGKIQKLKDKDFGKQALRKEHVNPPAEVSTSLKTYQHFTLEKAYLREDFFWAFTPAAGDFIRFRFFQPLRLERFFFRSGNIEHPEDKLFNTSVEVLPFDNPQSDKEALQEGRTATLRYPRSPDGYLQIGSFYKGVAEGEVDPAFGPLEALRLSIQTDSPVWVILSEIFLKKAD
UniProt Q06413, whole entry, looked up: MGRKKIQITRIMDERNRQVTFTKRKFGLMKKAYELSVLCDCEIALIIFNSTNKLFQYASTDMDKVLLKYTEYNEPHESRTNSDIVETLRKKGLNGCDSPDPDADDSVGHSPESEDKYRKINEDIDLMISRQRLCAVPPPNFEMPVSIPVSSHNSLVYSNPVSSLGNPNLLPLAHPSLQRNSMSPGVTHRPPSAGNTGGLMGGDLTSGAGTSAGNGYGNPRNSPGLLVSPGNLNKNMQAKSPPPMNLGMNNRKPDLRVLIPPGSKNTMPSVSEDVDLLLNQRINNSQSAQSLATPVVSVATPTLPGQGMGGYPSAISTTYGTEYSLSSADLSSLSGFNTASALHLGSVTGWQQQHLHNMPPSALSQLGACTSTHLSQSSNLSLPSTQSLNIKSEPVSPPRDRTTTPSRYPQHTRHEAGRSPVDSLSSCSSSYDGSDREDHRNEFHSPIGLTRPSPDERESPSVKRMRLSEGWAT
UniProt Q7Z434: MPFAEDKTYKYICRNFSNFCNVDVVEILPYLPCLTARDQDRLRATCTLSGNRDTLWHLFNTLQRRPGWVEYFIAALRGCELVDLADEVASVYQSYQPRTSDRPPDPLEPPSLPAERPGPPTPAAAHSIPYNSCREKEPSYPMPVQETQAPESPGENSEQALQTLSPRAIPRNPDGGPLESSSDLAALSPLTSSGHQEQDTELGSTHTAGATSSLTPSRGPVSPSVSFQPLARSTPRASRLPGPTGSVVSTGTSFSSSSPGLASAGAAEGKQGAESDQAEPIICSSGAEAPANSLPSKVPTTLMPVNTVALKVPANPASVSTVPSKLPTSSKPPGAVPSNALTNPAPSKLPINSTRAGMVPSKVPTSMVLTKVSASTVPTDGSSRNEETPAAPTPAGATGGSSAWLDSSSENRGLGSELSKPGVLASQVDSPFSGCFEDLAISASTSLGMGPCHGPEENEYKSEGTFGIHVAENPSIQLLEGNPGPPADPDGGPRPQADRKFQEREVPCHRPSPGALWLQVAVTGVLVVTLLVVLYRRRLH
UniProt Q16626: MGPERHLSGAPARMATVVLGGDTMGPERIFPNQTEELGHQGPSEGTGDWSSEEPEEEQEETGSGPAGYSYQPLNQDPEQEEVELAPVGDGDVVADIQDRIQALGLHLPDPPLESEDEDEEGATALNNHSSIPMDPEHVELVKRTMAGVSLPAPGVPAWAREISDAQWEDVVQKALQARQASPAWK
UniProt Q8NI22: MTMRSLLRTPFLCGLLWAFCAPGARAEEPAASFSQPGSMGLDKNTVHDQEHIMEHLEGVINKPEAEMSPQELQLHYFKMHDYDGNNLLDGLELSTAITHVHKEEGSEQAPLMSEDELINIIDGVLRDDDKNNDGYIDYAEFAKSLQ
UniProt Q09328: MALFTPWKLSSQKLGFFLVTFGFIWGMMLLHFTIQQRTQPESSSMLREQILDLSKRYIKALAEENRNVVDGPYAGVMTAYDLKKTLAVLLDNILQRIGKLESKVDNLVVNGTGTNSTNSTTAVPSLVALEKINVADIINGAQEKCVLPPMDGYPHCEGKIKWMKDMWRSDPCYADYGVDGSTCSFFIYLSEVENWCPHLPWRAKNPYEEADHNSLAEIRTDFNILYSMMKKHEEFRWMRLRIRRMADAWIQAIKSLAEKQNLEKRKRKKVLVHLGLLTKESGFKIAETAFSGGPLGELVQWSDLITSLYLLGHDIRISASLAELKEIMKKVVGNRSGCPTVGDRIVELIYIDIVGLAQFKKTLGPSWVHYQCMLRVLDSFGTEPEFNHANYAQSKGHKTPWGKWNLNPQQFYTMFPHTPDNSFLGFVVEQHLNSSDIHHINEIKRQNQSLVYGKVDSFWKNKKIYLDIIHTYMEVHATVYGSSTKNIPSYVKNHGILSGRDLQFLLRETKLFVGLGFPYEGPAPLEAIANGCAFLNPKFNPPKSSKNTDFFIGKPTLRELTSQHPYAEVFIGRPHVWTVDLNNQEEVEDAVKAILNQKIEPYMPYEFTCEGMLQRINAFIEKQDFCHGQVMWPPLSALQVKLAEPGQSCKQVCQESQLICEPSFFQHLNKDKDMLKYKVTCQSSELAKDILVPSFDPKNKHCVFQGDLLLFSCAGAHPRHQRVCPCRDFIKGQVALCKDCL
UniProt Q96PE7: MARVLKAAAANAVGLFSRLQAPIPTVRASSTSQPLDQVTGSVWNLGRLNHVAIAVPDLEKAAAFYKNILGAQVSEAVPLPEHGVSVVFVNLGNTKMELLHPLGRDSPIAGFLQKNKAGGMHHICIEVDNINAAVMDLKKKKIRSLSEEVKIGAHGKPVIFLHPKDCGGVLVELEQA
UniProt P31153, whole entry, looked up: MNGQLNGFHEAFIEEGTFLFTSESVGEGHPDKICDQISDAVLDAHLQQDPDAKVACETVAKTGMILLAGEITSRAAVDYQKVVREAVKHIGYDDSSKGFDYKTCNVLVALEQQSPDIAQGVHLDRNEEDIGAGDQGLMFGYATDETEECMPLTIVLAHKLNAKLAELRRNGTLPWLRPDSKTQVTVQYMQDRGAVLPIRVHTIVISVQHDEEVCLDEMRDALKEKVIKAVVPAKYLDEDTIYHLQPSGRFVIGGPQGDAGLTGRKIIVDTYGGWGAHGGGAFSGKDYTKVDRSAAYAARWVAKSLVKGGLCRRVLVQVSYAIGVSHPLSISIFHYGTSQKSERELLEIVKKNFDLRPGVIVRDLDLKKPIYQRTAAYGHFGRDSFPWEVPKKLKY
UniProt Q9NRN9: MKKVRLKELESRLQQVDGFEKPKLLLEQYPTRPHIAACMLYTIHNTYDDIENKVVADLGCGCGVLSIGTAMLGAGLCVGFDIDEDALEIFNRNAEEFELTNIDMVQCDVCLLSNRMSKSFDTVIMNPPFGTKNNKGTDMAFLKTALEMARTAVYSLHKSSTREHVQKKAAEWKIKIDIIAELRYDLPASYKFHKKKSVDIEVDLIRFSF
UniProt Q9BUE0: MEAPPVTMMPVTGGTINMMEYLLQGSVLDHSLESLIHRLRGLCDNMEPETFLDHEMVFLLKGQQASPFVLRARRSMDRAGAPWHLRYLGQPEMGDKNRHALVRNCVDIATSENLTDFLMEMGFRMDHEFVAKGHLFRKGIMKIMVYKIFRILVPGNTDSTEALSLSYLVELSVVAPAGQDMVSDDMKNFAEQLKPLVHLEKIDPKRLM
UniProt Q14814: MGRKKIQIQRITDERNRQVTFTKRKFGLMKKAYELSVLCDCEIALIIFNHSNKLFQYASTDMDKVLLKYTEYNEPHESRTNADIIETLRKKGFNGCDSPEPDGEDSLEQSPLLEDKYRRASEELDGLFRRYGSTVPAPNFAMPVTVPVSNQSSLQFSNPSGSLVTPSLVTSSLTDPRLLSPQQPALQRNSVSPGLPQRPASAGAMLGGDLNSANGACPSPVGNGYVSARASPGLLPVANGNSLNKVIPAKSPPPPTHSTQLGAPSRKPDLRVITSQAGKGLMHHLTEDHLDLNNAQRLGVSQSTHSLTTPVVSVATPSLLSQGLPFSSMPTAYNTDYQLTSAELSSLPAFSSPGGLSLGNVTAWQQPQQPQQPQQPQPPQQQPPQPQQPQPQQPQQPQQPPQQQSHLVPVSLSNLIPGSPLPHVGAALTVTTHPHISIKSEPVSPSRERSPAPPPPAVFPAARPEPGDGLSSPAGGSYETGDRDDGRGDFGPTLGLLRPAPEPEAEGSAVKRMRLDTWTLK
UniProt Q9HCE5: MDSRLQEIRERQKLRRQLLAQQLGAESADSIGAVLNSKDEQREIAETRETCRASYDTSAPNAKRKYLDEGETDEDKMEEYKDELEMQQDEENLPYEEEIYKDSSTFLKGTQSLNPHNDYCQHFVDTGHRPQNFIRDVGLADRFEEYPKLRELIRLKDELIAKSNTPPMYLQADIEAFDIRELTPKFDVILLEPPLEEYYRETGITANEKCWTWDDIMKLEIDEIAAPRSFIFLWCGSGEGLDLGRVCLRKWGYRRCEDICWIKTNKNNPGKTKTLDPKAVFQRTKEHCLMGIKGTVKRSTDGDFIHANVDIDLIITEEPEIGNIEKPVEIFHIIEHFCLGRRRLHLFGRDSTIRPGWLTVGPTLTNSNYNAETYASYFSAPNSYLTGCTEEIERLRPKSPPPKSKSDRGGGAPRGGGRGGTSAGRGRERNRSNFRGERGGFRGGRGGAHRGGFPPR
UniProt Q9NPJ6: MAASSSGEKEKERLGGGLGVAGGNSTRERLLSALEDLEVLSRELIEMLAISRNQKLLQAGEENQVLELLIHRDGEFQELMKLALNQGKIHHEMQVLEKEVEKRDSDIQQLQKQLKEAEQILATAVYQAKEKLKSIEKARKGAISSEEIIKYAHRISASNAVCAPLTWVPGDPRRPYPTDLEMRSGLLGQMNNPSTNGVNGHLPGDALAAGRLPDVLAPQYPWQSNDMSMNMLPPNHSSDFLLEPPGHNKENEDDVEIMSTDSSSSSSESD
UniProt Q9BV79: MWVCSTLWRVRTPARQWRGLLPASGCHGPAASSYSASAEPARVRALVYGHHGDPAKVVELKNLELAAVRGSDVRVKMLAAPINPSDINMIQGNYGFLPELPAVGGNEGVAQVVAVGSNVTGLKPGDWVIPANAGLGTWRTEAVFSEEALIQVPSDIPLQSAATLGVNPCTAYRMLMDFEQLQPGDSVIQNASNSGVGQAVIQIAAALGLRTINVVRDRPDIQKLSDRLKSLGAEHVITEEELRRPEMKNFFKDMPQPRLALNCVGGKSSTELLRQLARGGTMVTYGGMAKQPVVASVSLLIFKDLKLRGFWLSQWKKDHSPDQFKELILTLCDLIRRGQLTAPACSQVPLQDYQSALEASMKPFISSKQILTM
UniProt P40925: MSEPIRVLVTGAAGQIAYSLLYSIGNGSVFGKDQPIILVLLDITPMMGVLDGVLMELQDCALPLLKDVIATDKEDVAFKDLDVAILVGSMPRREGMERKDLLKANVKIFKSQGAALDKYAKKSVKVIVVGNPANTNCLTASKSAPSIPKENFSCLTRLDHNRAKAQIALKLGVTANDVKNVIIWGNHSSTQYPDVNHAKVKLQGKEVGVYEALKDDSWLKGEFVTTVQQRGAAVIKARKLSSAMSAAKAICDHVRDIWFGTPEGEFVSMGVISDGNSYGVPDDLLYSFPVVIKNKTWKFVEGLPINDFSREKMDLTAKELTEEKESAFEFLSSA

Tests used:
Test in all cases: log2 fold change, soluble protein after heating vs DMSO (PISA); higher = thermal stabilisation; K562 cells, 10 uM, 30 min; active = over 0.2 and 3.5 SD of the protein, either way, in both replicates (recomputed)
[1] = compound: CC[C@@H]1C(=O)N(C)c2cnc(Nc3ccc(C(=O)NC4CCN(C)CC4)cc3OC)nc2N1C1CCCC1
Summary of the method: (§1)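 K562 cells at 2×10^6 cells/mL were treated for 30 min with 10 μM compound, and aliquots were heated for 3 min over 48°C-58°C before pooling. Extraction used PBS with 0.5% NP-40 at 4°C, and soluble protein was the supernatant after 21,000xg for 90 min, measured by TMTpro 16plex LC-MS/MS with channel sums equalised. Thermal stability values, relative to control samples and from duplicates, are log2 fold changes.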

[2] = compound: CC[C@@H]1C(=O)N(C)c2cnc(Nc3ccc(C(=O)N[C@H]4CC[C@H](N5CCN(CC6CC6)CC5)CC4)cc3OC)nc2N1C(C)C [volasertib]
Summary of the method: as §1

[3] = compound: CC[C@H](C)N1C=C(C2=C(C=C(C=C21)C3=CN=C(C=C3)N4CCNCC4)C(=O)NCC5=C(C=C(NC5=O)C)C)C
Summary of the method: as §1

[4] = compound: CC[C@H](C)[C@@H](C(=O)N[C@@H]([C@@H](C)O)C(=O)N[C@@H](CC(C)C)C(=O)[C@]1(CO1)C)NC(=O)[C@H]([C@@H](C)CC)N(C)C(=O)C [epoxomicin]
Summary of the method: as §1

[5] = compound: CCn1c(C(=O)N(C2CC2)C2CC2)cc2c3c(ncn3C)c(Nc3cc(C)n(C)n3)nc21
Summary of the method: as §1

[6] = compound: CCn1cc(-c2ccnc3[nH]c(-c4cccc(CN(C)C)c4)cc23)c(-c2ccc(NC(=O)N(C)C)cc2)n1
Summary of the method: as §1

[7] = compound: CN(C)CC(=O)Nc1ccc2[nH]c(=O)c3ccccc3c2c1
Summary of the method: as §1

[8] = compound: CN(CCOC1=CC=C(C=C1)C[C@H]2C(=O)NC(=O)S2)C3=CC=CC=N3 (racemic) [rosiglitazone]
Summary of the method: as §1

[9] = compound: CN1C2=C(C3=C1C(=O)N(N=C3)CC4=CC(=CC=C4)N)SC(=C2)S(=O)C
Summary of the method: as §1

[10] = compound: CN1CCC(CNc2ccc3ncc(-c4cccc(OC(F)(F)F)c4)n3n2)CC1
Summary of the method: as §1

Measured: log2 fold change

MED15 (UniProt Q96RN5)
inactive: [1] 0.042 | [2] 0.001 | [3] 0.022 | [4] 0.135 | [5] 0 | [6] 0 | [7] -0.002 | [8] 0.055 | [9] 0.038 | [10] 0

MGAT1 (UniProt P26572)
inactive: [1] -0.001 | [2] -0.014 | [3] 0.015 | [4] 0.025 | [5] 0.024 | [6] -0.057 | [7] -0.073 | [8] 0.022 | [9] -0.121 | [10] 0.106

METTL17 isoform 3 (UniProt Q9H7H0)
inactive: [1] 0.068 | [2] 0.03

MED20 (UniProt Q9H944)
inactive: [1] -0.069 | [2] -0.106 | [3] -0.008 | [4] -0.017 | [5] -0.027 | [6] -0.024 | [7] 0.001 | [8] 0.006 | [9] 0.075 | [10] -0.01

MGAT4B isoform 3 (UniProt Q9UQ53)
inactive: [1] -0.02 | [2] -0.015 | [3] 0.046 | [4] 0.039 | [5] 0.007 | [6] 0.178 | [7] 0.049 | [8] 0.062 | [9] 0.006 | [10] -0.341

MBNL1 (UniProt Q9NR56)
inactive: [1] 0.014 | [2] 0.028 | [3] -0.016 | [4] 0.006 | [5] 0.005 | [6] -0.011 | [7] -0.123 | [8] -0.047 | [9] 0.026 | [10] -0.007

MESD (UniProt Q14696)
inactive: [1] 0.025 | [2] 0.01 | [3] -0.003 | [4] 0 | [5] 0.028 | [6] 0.01 | [7] -0.023 | [8] 0.007 | [9] 0.003 | [10] 0.045

MDH2 (UniProt P40926)
inactive: [1] -0.026 | [2] 0.066 | [3] -0.003 | [4] -0.021 | [5] 0.021 | [6] 0.016 | [7] -0.009 | [8] -0.005 | [9] -0.024 | [10] 0.05

MED23 (UniProt Q9ULK4)
inactive: [1] 0.037 | [2] 0.016 | [3] 0.087 | [4] 0.039 | [5] -0.038 | [6] 0.007 | [7] 0.078 | [8] 0.025 | [9] 0.014 | [10] -0.037

MEF2C isoform 5 (UniProt Q06413)
inactive: [1] -0.074 | [2] -0.138 | [3] 0.065 | [4] -0.066 | [5] -0.034 | [6] -0.055 | [7] -0.07 | [8] -0.046 | [9] 0.19 | [10] -0.082

2 successive entries already listed, for reference:
MED15 (UniProt Q96RN5)
inactive: [1] 0.042 | [2] 0.001 | [3] 0.022 | [4] 0.135 | [5] 0 | [6] 0 | [7] -0.002 | [8] 0.055 | [9] 0.038 | [10] 0

MGAT1 (UniProt P26572)
inactive: [1] -0.001 | [2] -0.014 | [3] 0.015 | [4] 0.025 | [5] 0.024 | [6] -0.057 | [7] -0.073 | [8] 0.022 | [9] -0.121 | [10] 0.106

Next records

MAVS (UniProt Q7Z434)
inactive: [1] -0.001 | [2] -0.033 | [3] -0.015 | [4] -0.035 | [5] 0.004 | [6] -0.002 | [7] -0.033 | [8] 0.015 | [9] -0.026 | [10] -0.039

MEA1 (UniProt Q16626)
inactive: [1] -0.037 | [2] 0.055 | [3] 0.032 | [4] 0.069 | [5] 0.03 | [6] -0.086 | [7] 0.042 | [8] 0.026 | [9] -0.005 | [10] 0.064

MCFD2 (UniProt Q8NI22)
inactive: [1] 0.019 | [2] 0.087 | [3] -0.005 | [4] 0.152 | [5] 0.01 | [6] -0.005 | [7] 0.192 | [8] -0.048 | [9] -0.055 | [10] 0.148

MGAT5 (UniProt Q09328)
inactive: [1] 0.04 | [2] -0.12 | [3] -0.068 | [4] 0.166 | [5] 0 | [6] -0.045 | [7] -0.011 | [8] -0.004 | [9] -0.05 | [10] -0.029

MCEE (UniProt Q96PE7)
inactive: [1] 0 | [2] 0.02 | [3] -0.026 | [4] 0.096 | [5] 0.106 | [6] 0 | [7] 0.028 | [8] 0.025 | [9] -0.047 | [10] 0.05

MCM6 (UniProt Q14566)
inactive: [1] -0.003 | [2] -0.068 | [3] 0.018 | [4] 0.031 | [5] 0.003 | [6] -0.041 | [7] 0 | [8] 0.014 | [9] -0.085 | [10] -0.095

MAT2A (UniProt P31153)
inactive: [1] 0.004 | [2] 0.068 | [3] -0.035 | [4] 0.006 | [5] 0.023 | [6] 0.018 | [7] -0.047 | [8] -0.005 | [9] -0.018 | [10] -0.021

METTL5 (UniProt Q9NRN9)
inactive: [1] 0.009 | [2] 0.046 | [3] -0.032 | [4] 0 | [5] 0.035 | [6] 0.003 | [7] 0.003 | [8] 0.008 | [9] -0.053 | [10] -0.014

MED18 (UniProt Q9BUE0)
inactive: [1] -0.094 | [2] -0.036 | [3] 0.063 | [4] 0.028 | [5] -0.016 | [6] 0.046 | [7] 0.051 | [8] -0.008 | [9] 0.027 | [10] -0.082

MEF2D (UniProt Q14814)
inactive: [1] 0.07 | [2] 0.024 | [3] 0.006 | [4] 0.044 | [5] 0.029 | [6] -0.012 | [7] 0.033 | [8] 0.051 | [9] -0.069 | [10] -0.084

MBTPS1 (UniProt Q14703)
inactive: [1] -0.024 | [2] -0.01 | [3] -0.019 | [4] -0.021 | [5] -0.09 | [6] -0.034 | [7] -0.15 | [8] -0.025 | [9] 0.054 | [10] 0.053

MCUB (UniProt Q9NWR8)
inactive: [1] -0.175 | [2] -0.196 | [3] -0.143 | [4] 0.041 | [5] -0.062 | [6] -0.025 | [7] 0.076 | [8] -0.049 | [9] -0.061 | [10] -0.129

MAT1A (UniProt Q00266)
inactive: [1] -0.023 | [2] 0.071 | [3] -0.026 | [4] 0.043 | [5] 0.08 | [6] 0.032 | [7] -0.007 | [8] -0.014 | [9] -0.004 | [10] -0.01

METTL14 (UniProt Q9HCE5)
inactive: [1] -0.001 | [2] -0.031 | [3] 0.074 | [4] 0.035 | [5] 0.008 | [6] -0.036 | [7] -0.018 | [8] 0.038 | [9] -0.005 | [10] -0.004

MED4 (UniProt Q9NPJ6)
inactive: [1] 0.105 | [2] 0.113 | [3] 0.043 | [4] 0.032 | [5] -0.003 | [6] 0.023 | [7] -0.037 | [8] -0.077 | [9] -0.016 | [10] 0.022

MFSD10 (UniProt Q14728)
inactive: [1] 0.093 | [2] 0.069 | [3] -0.071 | [4] -0.106 | [5] 0.025 | [6] 0.045 | [7] -0.004 | [8] 0.007 | [9] -0.205 | [10] 0.058

MGME1 (UniProt Q9BQP7)
inactive: [1] -0.034 | [2] 0.011 | [3] 0.011 | [4] 0.046 | [5] 0.039 | [6] -0.048 | [7] -0.005 | [8] 0.023 | [9] -0.028 | [10] -0.059

MECR (UniProt Q9BV79)
inactive: [1] 0.009 | [2] 0.048 | [3] -0.028 | [4] 0.037 | [5] 0.011 | [6] -0.001 | [7] 0.007 | [8] -0.005 | [9] -0.135 | [10] -0.028

MDH1 isoform 3 (UniProt P40925)
inactive: [1] -0.015 | [2] 0.023 | [3] -0.024 | [4] 0.037 | [5] 0.03 | [6] -0.008 | [7] -0.013 | [8] 0.014 | [9] -0.087 | [10] -0.018

MEF2A (UniProt Q02078)
inactive: [1] -0.025 | [2] -0.035 | [3] 0.028 | [4] 0.052 | [5] -0.066

MCMBP (UniProt Q9BTE3)
inactive: [1] -0.167 | [2] -0.198 | [3] 0.056 | [4] 0.099 | [5] -0.061 | [6] -0.109 | [7] 0.059 | [8] 0.055 | [9] -0.02 | [10] 0.045
